Source: PubChem BioAssay AID624206 (National Center for Advancing Translational Sciences (NCATS), 2012)
All entries are inconclusive by the source's own rule. Clear calls are listed elsewhere. Calls come from the whole dose curve; as a rule, active = well fitted curve in the direction sought with a large enough effect; inconclusive = small, poorly fitted or top-dose-only effect, or another doubt; inactive = no such curve, though single readings can be large or run the other way. Where the call is inconclusive, the potency comes from a doubtful curve fit.

Experiment: Quantitative high throughput screen to test cell viability of anti-malarial compounds targeting the delayed death phenotype.
Conditions: HepG2 viability, CellTiter-Glo luminescence, 48 h
From the text: NIH Molecular Libraries Probe Production Network [MLPCN] NIH Chemical Genomics Center [NCGC] MLPCN Grant: R21 NS059500 Assay Provider: David Fidock and Eric Ekland, Columbia University The goal of this screen is to measuer the cytoxoxicity (against HepG2 cell line) of a set of anti-malarial compounds that target the delayed death pheonotype, by inhibiting the development of the apicoplast in the malarial parasite Plasmodium falciparum (described below) The biochemical processes that make this organelle essential for erythrocytic stage parasites are not well understood. However, antibiotics, such as azithromycin and tetracycline, which target the apicoplast translational machinery, have a potent antimalarial effect. […] We have developed a cell-based assay that measures parasite growth based on the expression of an integrated copy of a firefly luciferase reporter. To detect small molecules that cause this 'delayed death' phenotype, erythrocytes infected with the luciferase-expressing parasites were incubated with compounds for either one or two generations, corresponding to 48 and 96 hours, respectively. […] Growth inhibition is detected by a decrease in luciferase activity
Cells were plated at a density of 2000 cells/well/5uL in 1536 well white tissue culture plate with culture medium. […] Luminescence was measured using ViewLux (1 second, slow, 2X).

Row | SMILES | Potency
1 | COc1cc(C(C)=O)ccc1OCC(O)CN1CCN(c2cc(C)cc(C)c2)CC1 (stereo unspecified) | inconclusive: 31.6 µM [inhibitor, single point]
